Test results reported in CN117567612A.
Results are given in words; binding and its absence hold for the method and conditions named. A result given as binding can be weak or reduced; the word gives no strength.

Assays:
[1] = target: CLDN18.2; experiment: flow cytometry titration and kinetics (Fig. 2, Table 1)
[2] = target: CLDN18.2; experiment: flow cytometry on stably transfected CHO cells (cell pool)
[3] = target: CLDN18.2; experiment: flow cytometry on overexpressing cells (Fig. 1)

binding [1]: binds
binding [2]: binds
binding [3]: binds
B1: CLDN-BC-P1022-hH1 (antibody, V domains shown)
VH: QVQLVQSGGGLVQPGGSLRLSCAASGFTFSSYEMNWVRQAPGKGLEWVAYITGSGRTMYYADSVKGRITISRDNAKNSLYLQMNSLRAEDTAVYYCARYWNYAGGMDVWGQGTLVTVSS
VL: DIQMTQSPSSVSASVGDRVTITCRASQGISSWLAWYQQKPGKAPKLLIYAASSLQSGVPSRFSGSGSGTDFTLTISSLQPEDFATYYCQQANSFPLTFGGGTKVEIK
